Test results taken from the supplement of paper PMC12819154, “High-throughput peptide-centric local stability assay extends protein–ligand identification to membrane proteins, tissues and bacteria” (Nature Structural & Molecular Biology, 2025).
The list shows a part of the results. Small differences around the control level are noise.

Amino acid sequences for entries named in this document (tags omitted). A change or cut given only in a name is not applied to a line headed by its entry.
UniProt Q14C51, whole entry: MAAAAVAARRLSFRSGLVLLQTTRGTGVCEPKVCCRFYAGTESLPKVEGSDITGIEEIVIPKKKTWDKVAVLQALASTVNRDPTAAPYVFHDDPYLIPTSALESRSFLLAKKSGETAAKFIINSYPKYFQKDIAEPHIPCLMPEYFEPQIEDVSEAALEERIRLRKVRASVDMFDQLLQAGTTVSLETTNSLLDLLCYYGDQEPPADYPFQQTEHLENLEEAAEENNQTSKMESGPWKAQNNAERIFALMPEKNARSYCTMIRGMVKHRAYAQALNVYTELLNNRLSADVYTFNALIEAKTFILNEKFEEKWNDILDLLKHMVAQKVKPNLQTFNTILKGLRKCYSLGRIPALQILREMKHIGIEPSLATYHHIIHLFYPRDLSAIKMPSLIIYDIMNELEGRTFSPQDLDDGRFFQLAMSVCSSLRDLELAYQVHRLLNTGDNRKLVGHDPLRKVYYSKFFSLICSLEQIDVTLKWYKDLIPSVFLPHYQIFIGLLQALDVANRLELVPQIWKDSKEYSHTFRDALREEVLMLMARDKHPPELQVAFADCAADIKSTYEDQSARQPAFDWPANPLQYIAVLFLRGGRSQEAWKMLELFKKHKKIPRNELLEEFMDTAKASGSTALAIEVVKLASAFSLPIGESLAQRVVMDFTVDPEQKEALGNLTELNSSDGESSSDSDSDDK
UniProt Q3U0B3: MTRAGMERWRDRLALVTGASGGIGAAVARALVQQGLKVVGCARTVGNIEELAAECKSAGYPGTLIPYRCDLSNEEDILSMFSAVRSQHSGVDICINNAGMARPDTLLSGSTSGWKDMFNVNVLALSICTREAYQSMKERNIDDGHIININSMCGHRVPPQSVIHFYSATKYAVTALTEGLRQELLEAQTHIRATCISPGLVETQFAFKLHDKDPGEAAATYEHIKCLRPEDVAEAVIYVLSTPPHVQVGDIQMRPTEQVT
UniProt Q2YDW7: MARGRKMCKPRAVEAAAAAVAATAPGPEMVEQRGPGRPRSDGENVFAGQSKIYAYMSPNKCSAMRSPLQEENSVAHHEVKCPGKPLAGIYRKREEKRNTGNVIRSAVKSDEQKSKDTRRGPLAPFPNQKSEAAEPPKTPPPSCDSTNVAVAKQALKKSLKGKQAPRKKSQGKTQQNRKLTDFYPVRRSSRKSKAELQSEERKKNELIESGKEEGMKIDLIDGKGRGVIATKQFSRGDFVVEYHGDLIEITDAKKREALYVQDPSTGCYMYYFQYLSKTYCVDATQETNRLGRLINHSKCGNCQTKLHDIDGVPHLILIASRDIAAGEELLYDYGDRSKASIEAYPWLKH
UniProt Q04750: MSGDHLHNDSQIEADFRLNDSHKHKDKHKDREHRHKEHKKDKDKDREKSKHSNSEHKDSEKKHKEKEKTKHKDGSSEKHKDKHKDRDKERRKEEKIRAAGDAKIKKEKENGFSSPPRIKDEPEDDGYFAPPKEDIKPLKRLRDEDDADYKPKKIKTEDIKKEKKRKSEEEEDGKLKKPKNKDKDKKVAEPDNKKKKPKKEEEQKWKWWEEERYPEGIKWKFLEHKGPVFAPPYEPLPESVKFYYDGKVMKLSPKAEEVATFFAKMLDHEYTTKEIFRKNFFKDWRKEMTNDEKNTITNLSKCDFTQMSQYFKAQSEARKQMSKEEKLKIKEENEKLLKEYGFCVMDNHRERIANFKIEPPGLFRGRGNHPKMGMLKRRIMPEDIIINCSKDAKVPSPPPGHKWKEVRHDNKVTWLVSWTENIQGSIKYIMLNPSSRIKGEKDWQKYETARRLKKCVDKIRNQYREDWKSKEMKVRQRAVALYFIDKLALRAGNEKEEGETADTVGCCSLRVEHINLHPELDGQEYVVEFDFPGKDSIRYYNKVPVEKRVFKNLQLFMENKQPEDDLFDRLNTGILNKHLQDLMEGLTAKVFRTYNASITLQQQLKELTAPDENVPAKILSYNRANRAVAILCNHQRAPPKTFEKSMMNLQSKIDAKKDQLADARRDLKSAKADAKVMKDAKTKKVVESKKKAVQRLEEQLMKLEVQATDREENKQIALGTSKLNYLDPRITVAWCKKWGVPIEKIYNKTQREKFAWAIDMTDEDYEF
UniProt Q03249: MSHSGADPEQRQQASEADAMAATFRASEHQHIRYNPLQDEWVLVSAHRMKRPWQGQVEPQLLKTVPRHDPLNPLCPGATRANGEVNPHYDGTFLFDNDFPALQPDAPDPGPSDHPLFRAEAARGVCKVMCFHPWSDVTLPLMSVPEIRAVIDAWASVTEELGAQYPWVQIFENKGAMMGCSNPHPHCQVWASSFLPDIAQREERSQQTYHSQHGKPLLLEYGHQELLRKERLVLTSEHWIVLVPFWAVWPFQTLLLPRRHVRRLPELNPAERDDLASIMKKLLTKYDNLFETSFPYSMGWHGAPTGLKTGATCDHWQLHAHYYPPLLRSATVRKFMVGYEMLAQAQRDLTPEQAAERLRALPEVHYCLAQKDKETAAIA
UniProt Q3TLI0, whole entry: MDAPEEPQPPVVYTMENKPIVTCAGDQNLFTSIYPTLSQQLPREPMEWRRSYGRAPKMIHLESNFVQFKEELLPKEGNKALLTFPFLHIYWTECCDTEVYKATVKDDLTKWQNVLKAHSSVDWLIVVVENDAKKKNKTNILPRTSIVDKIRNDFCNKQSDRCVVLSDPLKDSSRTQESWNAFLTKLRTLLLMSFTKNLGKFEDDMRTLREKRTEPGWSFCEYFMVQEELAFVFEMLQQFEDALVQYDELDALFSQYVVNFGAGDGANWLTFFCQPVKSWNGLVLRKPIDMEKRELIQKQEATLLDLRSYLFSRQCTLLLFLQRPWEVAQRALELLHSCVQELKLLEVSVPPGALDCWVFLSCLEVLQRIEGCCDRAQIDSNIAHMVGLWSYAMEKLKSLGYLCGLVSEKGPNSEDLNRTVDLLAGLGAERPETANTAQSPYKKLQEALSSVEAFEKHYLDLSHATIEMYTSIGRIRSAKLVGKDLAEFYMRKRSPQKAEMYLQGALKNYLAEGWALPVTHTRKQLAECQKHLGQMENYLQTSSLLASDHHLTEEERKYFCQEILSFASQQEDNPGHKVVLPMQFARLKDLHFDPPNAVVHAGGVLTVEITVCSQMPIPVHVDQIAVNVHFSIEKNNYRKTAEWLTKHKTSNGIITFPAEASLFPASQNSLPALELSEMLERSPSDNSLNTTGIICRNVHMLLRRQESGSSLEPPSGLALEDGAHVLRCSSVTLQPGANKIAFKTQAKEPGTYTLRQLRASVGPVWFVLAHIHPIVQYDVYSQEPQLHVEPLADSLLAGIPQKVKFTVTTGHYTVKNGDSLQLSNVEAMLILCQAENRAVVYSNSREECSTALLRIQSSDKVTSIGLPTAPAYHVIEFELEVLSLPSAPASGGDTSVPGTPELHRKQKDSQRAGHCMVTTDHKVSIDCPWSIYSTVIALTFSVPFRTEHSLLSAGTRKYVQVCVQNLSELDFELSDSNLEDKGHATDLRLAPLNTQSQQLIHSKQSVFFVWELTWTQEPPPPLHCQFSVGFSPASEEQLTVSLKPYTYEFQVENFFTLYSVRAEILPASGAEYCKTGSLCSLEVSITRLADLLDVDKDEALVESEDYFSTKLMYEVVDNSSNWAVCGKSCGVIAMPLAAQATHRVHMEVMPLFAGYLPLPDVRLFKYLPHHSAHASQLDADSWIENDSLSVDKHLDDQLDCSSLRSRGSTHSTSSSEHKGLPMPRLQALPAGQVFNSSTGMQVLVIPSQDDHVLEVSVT
UniProt Q3U1T9: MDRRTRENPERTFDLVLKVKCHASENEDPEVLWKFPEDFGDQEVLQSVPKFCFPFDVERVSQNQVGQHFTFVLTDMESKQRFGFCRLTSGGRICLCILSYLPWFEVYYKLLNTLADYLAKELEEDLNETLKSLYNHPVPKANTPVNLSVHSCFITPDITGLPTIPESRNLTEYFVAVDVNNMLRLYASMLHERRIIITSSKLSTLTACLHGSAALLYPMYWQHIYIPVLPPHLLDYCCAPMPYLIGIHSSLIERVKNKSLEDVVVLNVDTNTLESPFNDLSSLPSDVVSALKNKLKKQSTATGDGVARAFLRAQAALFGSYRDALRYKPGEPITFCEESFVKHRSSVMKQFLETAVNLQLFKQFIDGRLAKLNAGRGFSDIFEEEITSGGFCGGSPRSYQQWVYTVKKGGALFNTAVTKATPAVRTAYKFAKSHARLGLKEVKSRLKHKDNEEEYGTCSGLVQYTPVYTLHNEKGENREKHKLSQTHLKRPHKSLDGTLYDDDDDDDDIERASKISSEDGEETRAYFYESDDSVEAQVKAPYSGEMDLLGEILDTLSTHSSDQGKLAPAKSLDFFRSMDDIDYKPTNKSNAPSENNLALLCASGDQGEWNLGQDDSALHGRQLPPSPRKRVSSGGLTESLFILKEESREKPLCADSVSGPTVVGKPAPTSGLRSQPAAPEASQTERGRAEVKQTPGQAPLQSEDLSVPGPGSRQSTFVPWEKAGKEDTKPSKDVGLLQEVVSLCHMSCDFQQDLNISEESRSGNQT
UniProt Q08093: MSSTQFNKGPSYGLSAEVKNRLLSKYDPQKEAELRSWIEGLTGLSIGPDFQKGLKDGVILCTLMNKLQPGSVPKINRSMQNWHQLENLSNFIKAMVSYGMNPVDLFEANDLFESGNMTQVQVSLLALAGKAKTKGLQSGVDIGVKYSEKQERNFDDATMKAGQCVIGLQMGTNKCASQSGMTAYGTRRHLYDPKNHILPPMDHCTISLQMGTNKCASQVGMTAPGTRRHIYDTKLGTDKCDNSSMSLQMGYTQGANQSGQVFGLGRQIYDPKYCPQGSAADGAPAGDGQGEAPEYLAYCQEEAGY
UniProt Q3SXB8: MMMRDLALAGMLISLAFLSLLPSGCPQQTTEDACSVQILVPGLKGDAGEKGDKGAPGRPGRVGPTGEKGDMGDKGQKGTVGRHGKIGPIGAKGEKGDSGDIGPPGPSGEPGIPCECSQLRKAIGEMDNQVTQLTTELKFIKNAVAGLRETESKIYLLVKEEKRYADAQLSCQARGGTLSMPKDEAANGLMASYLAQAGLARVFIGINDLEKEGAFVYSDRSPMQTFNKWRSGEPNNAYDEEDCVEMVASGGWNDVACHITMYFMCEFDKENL
UniProt Q3U1G5: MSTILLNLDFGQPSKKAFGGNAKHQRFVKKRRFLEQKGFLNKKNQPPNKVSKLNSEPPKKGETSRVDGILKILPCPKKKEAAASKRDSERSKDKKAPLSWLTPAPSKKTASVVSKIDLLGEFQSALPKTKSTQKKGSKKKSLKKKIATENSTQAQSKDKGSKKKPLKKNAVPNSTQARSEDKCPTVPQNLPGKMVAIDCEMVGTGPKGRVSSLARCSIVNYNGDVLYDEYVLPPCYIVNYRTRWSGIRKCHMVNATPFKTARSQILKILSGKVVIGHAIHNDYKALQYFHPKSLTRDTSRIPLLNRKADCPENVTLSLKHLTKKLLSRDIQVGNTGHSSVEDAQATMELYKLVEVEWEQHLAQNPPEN
UniProt Q3TSG4: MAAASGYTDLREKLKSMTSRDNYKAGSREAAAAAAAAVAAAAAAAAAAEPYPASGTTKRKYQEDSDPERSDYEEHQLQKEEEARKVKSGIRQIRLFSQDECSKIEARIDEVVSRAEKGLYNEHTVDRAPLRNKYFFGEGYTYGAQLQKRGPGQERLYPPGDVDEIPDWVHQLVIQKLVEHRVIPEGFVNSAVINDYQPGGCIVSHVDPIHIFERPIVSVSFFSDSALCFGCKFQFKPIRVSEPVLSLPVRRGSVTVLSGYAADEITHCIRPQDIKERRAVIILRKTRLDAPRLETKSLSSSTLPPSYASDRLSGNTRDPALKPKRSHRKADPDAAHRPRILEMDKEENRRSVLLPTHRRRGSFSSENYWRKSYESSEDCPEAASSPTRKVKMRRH
UniProt Q3TUH1: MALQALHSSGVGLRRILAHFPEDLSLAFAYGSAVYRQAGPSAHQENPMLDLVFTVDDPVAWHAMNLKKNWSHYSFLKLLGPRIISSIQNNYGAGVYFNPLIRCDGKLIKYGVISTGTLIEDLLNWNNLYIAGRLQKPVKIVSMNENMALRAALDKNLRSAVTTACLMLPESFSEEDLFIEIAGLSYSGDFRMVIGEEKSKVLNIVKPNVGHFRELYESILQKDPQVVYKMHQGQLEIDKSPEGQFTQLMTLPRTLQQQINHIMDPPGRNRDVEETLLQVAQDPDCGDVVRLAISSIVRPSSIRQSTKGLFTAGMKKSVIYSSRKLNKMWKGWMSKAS
UniProt Q3TUU5: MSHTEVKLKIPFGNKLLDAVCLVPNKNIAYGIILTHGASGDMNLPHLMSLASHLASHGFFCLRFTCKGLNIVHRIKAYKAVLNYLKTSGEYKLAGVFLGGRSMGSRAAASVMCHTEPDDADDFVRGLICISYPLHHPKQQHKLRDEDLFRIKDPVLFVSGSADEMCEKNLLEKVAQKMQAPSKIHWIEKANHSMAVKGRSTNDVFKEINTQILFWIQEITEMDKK

Compound: CN[C@@H]1C[C@H]2O[C@@](C)([C@@H]1OC)n1c3ccccc3c3c4c(c5c6ccccc6n2c5c31)C(=O)NC4 [staurosporine]
Test: log2 fold change of tryptic peptide abundance, ligand vs vehicle (limited proteolysis) (log2 ratio); higher = more trypsin-susceptible (destabilized)
Conditions: ligand concentration: 20 uM; sample: mouse liver crude lysate; replicate design: treated separately

Target	log2 fold change
UniProt Q3TC93 (peptide sequence: APGATGLATR, peptide start residue: 139)	-0.0726
UniProt Q14C51 (peptide sequence: MLELFKK, peptide start residue: 595)	0.123
UniProt Q2MHN3 (peptide sequence: NILLVHYNSVSHLHK, peptide start residue: 1568)	0.596
UniProt Q05144 (peptide sequence: DIDSVKYLECSALTQR, peptide start residue: 148)	-0.286
UniProt Q3U0B3 (peptide sequence: YAVTALTEGLR, peptide start residue: 171)	0.273
UniProt Q04690 (peptide sequence: AVQGCGAHPAIR, peptide start residue: 450)	0.62
UniProt Q08639 (peptide sequence: VFIDQNLSPGK, peptide start residue: 16)	-0.121
UniProt Q3TW96 (peptide sequence: AGQDHLLR, peptide start residue: 14)	-0.124
UniProt Q2YDW7 (peptide sequence: GVIATKQFSR, peptide start residue: 226)	0.0654
UniProt Q04750 (peptide sequence: YIMLNPSSR, peptide start residue: 428)	0.18
UniProt Q03249 (peptide sequence: DLTPEQAAER, peptide start residue: 348)	-0.238
UniProt Q3TLI0 (peptide sequence: KTAEWLTK, peptide start residue: 639)	0.276
UniProt Q04891 (peptide sequence: ILQAFPDMHNSSISK, peptide start residue: 434)	0.746
UniProt Q0KL02 (peptide sequence: GNLGSLPLGK, peptide start residue: 2442)	-0.276
UniProt Q148W0 (peptide sequence: GYADLISSGR, peptide start residue: 1216)	-0.283
UniProt Q3U1T9 (peptide sequence: GGALFNTAVTK, peptide start residue: 409)	0.32
UniProt Q08093 (peptide sequence: NHILPPMDHCTISLQMGTNK, peptide start residue: 195)	-0.491
UniProt Q3SXB8 (peptide sequence: VFIGINDLEK, peptide start residue: 202)	-0.23
UniProt Q2VPA6 (peptide sequence: YMQLPECGDRDADSGTK, peptide start residue: 91)	-0.534
UniProt Q3U1G5 (peptide sequence: APLSWLTPAPSKK, peptide start residue: 96)	-0.136
UniProt Q3U186 (peptide sequence: VLALPPESLIK, peptide start residue: 16)	0.476
UniProt Q3TSG4 (peptide sequence: ILEMDKEENRR, peptide start residue: 340)	-0.177
UniProt Q3TUH1 (peptide sequence: KSVIYSSR, peptide start residue: 316)	-0.813
UniProt Q3TUU5 (peptide sequence: LKIPFGNK, peptide start residue: 8)	0.523

An excerpt of these results, in markdown.

| Target | log2 fold change |
| --- | --- |
| UniProt Q148W0 (peptide sequence: GYADLISSGR, peptide start residue: 1216) | -0.283 |
| UniProt Q08093 (peptide sequence: NHILPPMDHCTISLQMGTNK, peptide start residue: 195) | -0.491 |
